Measurements reported in PubChem BioAssay AID504764 (Drosophila RNAi Screening Center, 2011)

- Assay: 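Genome-wide screen for regulators of Notch-driven gene expression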 (primary screen)
- System: Drosophila Kc167 cells
- Reagents: long dsRNA against Drosophila genes
- Duration: about 5 days (4 days dsRNA, then 24 h after transfection)
- Treatment: transfection of constitutively active membrane-tethered Notch lacking the extracellular domain, read 24 h later
- Read-out: 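Firefly luciferase from an E(spl)m3 reporter with active Notch, plus control-promoter and uninduced reporter wells for normalisation; unnormalised counts, duplicate wells a and b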
- Direction: induced reporter light, run 1, well a and induced reporter light, run 1, well b: higher = more light from the Notch target reporter with active Notch; control promoter light, run 1, well a and control promoter light, run 1, well b: higher = more light from the viral control promoter (cell number, transfection, viability); uninduced reporter light, run 1, well a: higher = more light from the Notch target reporter without active Notch
- Active means: 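Wells with low control signal or poorly matching duplicates excluded; duplicates averaged; per source plate, z beyond ±2 for induced/control log2 ratio or beyond ±1.8 for induced/uninduced marks a hit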
- Meaning of the calls: active = modifier hit (raised or lowered Notch signal); inactive = not a hit
In all, the deposit lists about 22,000 reagents; shown is an unselected part of those with a known target gene and a result. Of all reagents, 403 (1.9%) got an active call. 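Unnormalised raw counts per well; ratio z-scores behind the hit calls and whether each hit raises or lowers signal are not deposited.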 Reagent sequences are not shown. Not given: the amount of reagent.

Against CG6055 [DRSC02923], the values are induced reporter light, run 1, well a = 2.08e5; induced reporter light, run 1, well b = 1.77e5; control promoter light, run 1, well a = 2.01e5; control promoter light, run 1, well b = 1.90e5; uninduced reporter light, run 1, well a = 10630; inactive.
After knock-down of CG8517 [DRSC07205], the screen gave induced reporter light, run 1, well a = 97440; induced reporter light, run 1, well b = 95160; control promoter light, run 1, well a = 1.18e5; control promoter light, run 1, well b = 1.43e5; uninduced reporter light, run 1, well a = 8365; inactive.
After knock-down of CG42680 [DRSC01399], the record shows induced reporter light, run 1, well a = 99160; induced reporter light, run 1, well b = 1.09e5; control promoter light, run 1, well a = 95210; control promoter light, run 1, well b = 88680; uninduced reporter light, run 1, well a = 9965; inactive.
Against cv-2 (crossveinless 2) [DRSC03861], the values are induced reporter light, run 1, well a = 1.10e5; induced reporter light, run 1, well b = 86945; control promoter light, run 1, well a = 90750; control promoter light, run 1, well b = 1.12e5; uninduced reporter light, run 1, well a = 10775; inactive.
cv-2 (crossveinless 2) [DRSC04261] gave induced reporter light, run 1, well a = 59115; induced reporter light, run 1, well b = 51220; control promoter light, run 1, well a = 39975; control promoter light, run 1, well b = 56025; uninduced reporter light, run 1, well a = 2605; inactive.
For CG9541 [DRSC03257], the entry reads induced reporter light, run 1, well a = 99995; induced reporter light, run 1, well b = 1.10e5; control promoter light, run 1, well a = 61120; control promoter light, run 1, well b = 74440; uninduced reporter light, run 1, well a = 15460; inactive.
zen2 (zerknullt-related) [DRSC12633] gave induced reporter light, run 1, well a = 94315; induced reporter light, run 1, well b = 81460; control promoter light, run 1, well a = 57365; control promoter light, run 1, well b = 76400; uninduced reporter light, run 1, well a = 7600; inactive.
After knock-down of mu2 (mutator 2) [DRSC08726] the results were induced reporter light, run 1, well a = 97215; induced reporter light, run 1, well b = 93040; control promoter light, run 1, well a = 1.79e5; control promoter light, run 1, well b = 1.86e5; uninduced reporter light, run 1, well a = 10360; inactive.

Ordered by “control promoter light, run 1, well b” (lowest first): some entries from above.
CG42680 [DRSC01399] → induced reporter light, run 1, well a: 99160; induced reporter light, run 1, well b: 1.09e5; control promoter light, run 1, well a: 95210; control promoter light, run 1, well b: 88680; uninduced reporter light, run 1, well a: 9965; Outcome: inactive
CG8517 [DRSC07205] → induced reporter light, run 1, well a: 97440; induced reporter light, run 1, well b: 95160; control promoter light, run 1, well a: 1.18e5; control promoter light, run 1, well b: 1.43e5; uninduced reporter light, run 1, well a: 8365; Outcome: inactive

The listing continues:
Silencing of CG11400 [DRSC06070] resulted in: induced reporter light, run 1, well a = 1.24e5; induced reporter light, run 1, well b = 1.05e5; control promoter light, run 1, well a = 88530; control promoter light, run 1, well b = 1.49e5; uninduced reporter light, run 1, well a = 10130; inactive.
With knock-down of X11L [DRSC19958] the results were induced reporter light, run 1, well a = 1.40e5; induced reporter light, run 1, well b = 1.11e5; control promoter light, run 1, well a = 1.08e5; control promoter light, run 1, well b = 76845; uninduced reporter light, run 1, well a = 8382; inactive.
Depletion of X11L [DRSC19959] came out at: induced reporter light, run 1, well a = 86480; induced reporter light, run 1, well b = 83280; control promoter light, run 1, well a = 94780; control promoter light, run 1, well b = 91990; uninduced reporter light, run 1, well a = 12230; inactive.
Against Ir100a (Ionotropic receptor 100a) [DRSC14329] the deposit lists induced reporter light, run 1, well a = 1.15e5; induced reporter light, run 1, well b = 1.40e5; control promoter light, run 1, well a = 1.88e5; control promoter light, run 1, well b = 2.16e5; uninduced reporter light, run 1, well a = 9595; active.
CG12963 [DRSC06265] scored induced reporter light, run 1, well a = 1.05e5; induced reporter light, run 1, well b = 1.09e5; control promoter light, run 1, well a = 1.28e5; control promoter light, run 1, well b = 1.24e5; uninduced reporter light, run 1, well a = 8490; inactive.
After knock-down of CG13321 [DRSC06358] the results were induced reporter light, run 1, well a = 55575; induced reporter light, run 1, well b = 49060; control promoter light, run 1, well a = 61110; control promoter light, run 1, well b = 67750; uninduced reporter light, run 1, well a = 7005; inactive.
With knock-down of eIF3g2 (eukaryotic translation initiation factor 3 subunit g2) [DRSC14275], the record shows induced reporter light, run 1, well a = 1.40e5; induced reporter light, run 1, well b = 1.42e5; control promoter light, run 1, well a = 1.69e5; control promoter light, run 1, well b = 1.60e5; uninduced reporter light, run 1, well a = 9670; inactive.
Against Pgm2b (Phosphoglucomutase 2b) [DRSC05978] the deposit lists induced reporter light, run 1, well a = 1.37e5; induced reporter light, run 1, well b = 1.65e5; control promoter light, run 1, well a = 1.69e5; control promoter light, run 1, well b = 1.29e5; uninduced reporter light, run 1, well a = 12610; inactive.
CG13627 [DRSC14629] gave induced reporter light, run 1, well a = 1.51e5; induced reporter light, run 1, well b = 1.45e5; control promoter light, run 1, well a = 2.04e5; control promoter light, run 1, well b = 1.72e5; uninduced reporter light, run 1, well a = 13410; inactive.
With knock-down of CG18598 [DRSC15356], the screen gave induced reporter light, run 1, well a = 1.96e5; induced reporter light, run 1, well b = 1.83e5; control promoter light, run 1, well a = 2.53e5; control promoter light, run 1, well b = 2.16e5; uninduced reporter light, run 1, well a = 13125; inactive.
